± gives the uncertainty stated by the source. Many entries were measured with a wide error.
Test: self-splicing fitness, log relative to wild type (ln ratio); higher = more splicing; Tetrahymena group I intron in knt gene, E. coli kanamycin selection, DiMSum; sequences stand for … in CUCUCU…GGAGGGAAAAGUUAUCAGGCAUGCACCUGGUAGCUAGUCUUUAAACCAAUAGAUUGCAUCGGUUUAAAAGGCAAGACCGUCAAAUUGCGGGAAAGGGGUCAACAGCCGUUCAGUACCAAGUCUCAGGGGAAACUUUGAGAUGGCCUUGCAAAGGGUAUGGUAAUAAGCUGACGGACAUGGUCCUAACCACGCAGCCAAGUCCUAAGUCAACAGAUCUUCUGUUGAUAUGGAUGCAGUUCACAGACUAAAUGUCGGUCGGGGAAGAUGUAUUCUUCUCAUAAGAUAUAGUCGGACCUCUCCUUAAUGGGAGCUAGCGGAUGAAGUGAUGCAACACUGGAGCCGCUGGGAACUAAUUUGUAUGCGAAAGUAUAUUGAUUAGUUUUGGAGUACUCGUGGUCG
Procedure, shortened: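 DiMSum derived fitness as the error-weighted combination of fold changes across replicates, kanamycin versus no kanamycin, normalised to wild type. E. coli BL21(DE3) held the library, which randomised all eight P1ex-region intron nucleotides within the knt kanamycin-resistance gene on pET-22b(+). Six replicate transformations grew overnight at 37°C or 30°C on LB agar with or without 25 μg/mL kanamycin, also containing 100 μg/mL carbenicillin, 50 μM IPTG and 0.2% rhamnose, and pooled colonies were amplicon-sequenced on an Illumina HiSeq 2500.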

Sequence | self-splicing fitness (ln) (30 °C) | self-splicing fitness (ln) (37 °C)
GGGUAGCAAUAUUACGUCUA | -0.297 ± 0.15 | 0.226 ± 0.16
UGCAAGCAAUAUUACGCCAC | -4.28 ± 0.52 | –
ACUGAGCAAUAUUACGCCGU | -4.62 ± 1 | –
AAUGAGCAAUAUUACGGUCC | – | -2.06 ± 0.58
GUAGAGCAAUAUUACGCCCU | -0.327 ± 0.66 | 0.319 ± 0.7
CCGUAGCAAUAUUACGCUCA | -4.56 ± 0.51 | –
AGGGAGCAAUAUUACGGUAG | – | -2.79 ± 0.54
AGAGAGCAAUAUUACGCCAC | -1.94 ± 0.82 | –
GGUGAGCAAUAUUACGUCGC | – | -0.663 ± 0.68
GCUUAGCAAUAUUACGCACU | -0.857 ± 0.11 | 0.197 ± 0.12
AGAGAGCAAUAUUACGCUUU | -3.54 ± 0.41 | -2.52 ± 0.45
UAUAAGCAAUAUUACGGAGA | -3.11 ± 0.36 | -2.33 ± 0.46
UCAGAGCAAUAUUACGCCCA | – | -1.11 ± 0.73
UCUUAGCAAUAUUACGUACC | -1.26 ± 0.48 | -1.53 ± 0.41
GUGGAGCAAUAUUACGGCUU | – | -1.79 ± 0.53
ACUGAGCAAUAUUACGCGGU | – | -3.21 ± 1
UAGGAGCAAUAUUACGCAUC | -3.06 ± 1.1 | –
AUUCAGCAAUAUUACGAGAC | -4.61 ± 0.74 | –
CGUGAGCAAUAUUACGCCCG | – | -0.307 ± 0.77
GUGGAGCAAUAUUACGAGGC | -4.25 ± 0.73 | –
CUGGAGCAAUAUUACGCACA | -2.95 ± 0.75 | -1.8 ± 0.66
CGGGAGCAAUAUUACGGGGG | – | -2.23 ± 0.51
CUGCAGCAAUAUUACGUCUC | -4.43 ± 0.51 | –
GUCUAGCAAUAUUACGCAGA | -4.03 ± 0.52 | –

Sequence | self-splicing fitness (ln) (30 °C) | self-splicing fitness (ln) (37 °C)
UCGCAGCAAUAUUACGGAUC | – | -3.69 ± 0.73
CGAGAGCAAUAUUACGUGCU | – | -3.7 ± 0.51
GAUGAGCAAUAUUACGGGCU | – | -2.62 ± 0.64
UGAAAGCAAUAUUACGUGUG | -1.67 ± 0.077 | -0.52 ± 0.081
GUGUAGCAAUAUUACGCUGG | -3.59 ± 0.38 | -1.54 ± 0.22
GAUUAGCAAUAUUACGUUUA | -2.9 ± 0.25 | -1.05 ± 0.15
GGGGAGCAAUAUUACGAACG | -2.3 ± 0.52 | –
ACCCAGCAAUAUUACGCCAU | -4.24 ± 0.23 | -1.88 ± 0.16
CCUAAGCAAUAUUACGAACC | – | 0.406 ± 1.2
CCCAAGCAAUAUUACGCCCC | -3.96 ± 0.72 | –
UGCGAGCAAUAUUACGCCAG | – | -2.12 ± 0.5
GUCUAGCAAUAUUACGACAU | -0.643 ± 0.014 | -0.146 ± 0.032
CUUAAGCAAUAUUACGUAGU | -3.14 ± 0.13 | -2.3 ± 0.18
CUGCAGCAAUAUUACGCGAU | -1.12 ± 0.09 | -0.167 ± 0.12
UAGGAGCAAUAUUACGGUUC | -4.17 ± 0.59 | -2.64 ± 0.75
GUUGAGCAAUAUUACGUAUU | – | -2.8 ± 1
UGAGAGCAAUAUUACGCUAU | -3.09 ± 0.35 | -1.48 ± 0.46
GACUAGCAAUAUUACGCUCC | – | -2.16 ± 1.1
CCCGAGCAAUAUUACGACAG | -4.38 ± 0.72 | –
GCAGAGCAAUAUUACGAGGC | -2.71 ± 0.65 | -1.13 ± 0.71
UGACAGCAAUAUUACGCUAU | -3.7 ± 0.2 | -1.09 ± 0.1
UCGGAGCAAUAUUACGCCUG | – | -2.84 ± 0.75
AUUAAGCAAUAUUACGUUGU | -1.98 ± 0.21 | -2.8 ± 0.32
CACGAGCAAUAUUACGUAGG | -3.91 ± 0.51 | –

Sequence | self-splicing fitness (ln) (30 °C) | self-splicing fitness (ln) (37 °C)
CGGAAGCAAUAUUACGAGGG | -0.374 ± 0.41 | -2.72 ± 1.1
UGUUAGCAAUAUUACGCGGU | – | -2.85 ± 0.61
CUGAAGCAAUAUUACGACGU | -2.75 ± 0.12 | -1.09 ± 0.1
UGCCAGCAAUAUUACGCCUC | -3.13 ± 1 | -1.78 ± 1.2
CACUAGCAAUAUUACGGCCC | -2.79 ± 0.57 | –
CAGGAGCAAUAUUACGUAGC | -5.08 ± 1 | –
CGGGAGCAAUAUUACGUGAU | -5.31 ± 1 | –
GCAUAGCAAUAUUACGCUUC | -4.54 ± 0.51 | –
UAGGAGCAAUAUUACGUGAC | – | -2.57 ± 0.51
AGUGAGCAAUAUUACGAAUC | -4.12 ± 1 | –
CUGAAGCAAUAUUACGUCCA | – | -2.36 ± 0.54
UUAUAGCAAUAUUACGCACC | -2.61 ± 0.78 | -2.12 ± 0.79
UCGAAGCAAUAUUACGAAUC | -2.42 ± 1.2 | -2.16 ± 0.64
UCCUAGCAAUAUUACGACAC | – | -0.693 ± 0.58
UCAGAGCAAUAUUACGUUGC | -4.57 ± 0.73 | –
UCCCAGCAAUAUUACGCUUC | -2.73 ± 0.19 | -2.76 ± 0.48
GUCCAGCAAUAUUACGCAGU | -0.463 ± 0.046 | -0.161 ± 0.058
AAAGAGCAAUAUUACGCAAU | -3.59 ± 0.21 | -1.65 ± 0.16
UGAUAGCAAUAUUACGGAAC | -3.88 ± 1.1 | –
CAUGAGCAAUAUUACGGUCG | -0.34 ± 0.091 | 0.0674 ± 0.1
GAGAAGCAAUAUUACGCCCC | -3.51 ± 0.53 | -2.61 ± 0.62
UCGGAGCAAUAUUACGACCG | – | 0.026 ± 0.51
GUCUAGCAAUAUUACGGCGC | -0.167 ± 0.1 | 0.985 ± 0.12
CGCCAGCAAUAUUACGAACU | -3.09 ± 0.63 | –

Sequence | self-splicing fitness (ln) (30 °C) | self-splicing fitness (ln) (37 °C)
CUUGAGCAAUAUUACGGACA | – | -2.65 ± 0.54
CUUAAGCAAUAUUACGCAUC | -4 ± 1 | –
CUAUAGCAAUAUUACGGCCC | – | -1.79 ± 1.2
CCCUAGCAAUAUUACGAGAC | -3.85 ± 0.22 | -2.69 ± 0.34
CCGAAGCAAUAUUACGCACA | -3.87 ± 0.37 | -2.59 ± 0.28
GCCUAGCAAUAUUACGACUA | -2.48 ± 0.56 | –
CUGAAGCAAUAUUACGGCAG | -0.522 ± 0.11 | -0.657 ± 0.14
CGAUAGCAAUAUUACGACAC | – | -1.84 ± 0.81
GGUCAGCAAUAUUACGAACC | -2.47 ± 1.1 | -0.778 ± 1.4
AGUCAGCAAUAUUACGAGAA | -2.51 ± 0.73 | –
UGCUAGCAAUAUUACGAUCC | – | -0.932 ± 0.76
UUAGAGCAAUAUUACGUACG | -0.844 ± 0.11 | -1.06 ± 0.17
ACGGAGCAAUAUUACGUUUC | -4.41 ± 0.72 | -2.39 ± 1.1
CUAAAGCAAUAUUACGUGCC | -4.57 ± 0.29 | -2.25 ± 0.18
CUAUAGCAAUAUUACGCUAA | -1.65 ± 0.2 | -2.41 ± 0.32
AAGGAGCAAUAUUACGCACC | -4.26 ± 1 | –
UGAAAGCAAUAUUACGUAAC | -5.05 ± 0.51 | –
UUGUAGCAAUAUUACGCAGU | -4.43 ± 0.73 | –
CUUCAGCAAUAUUACGCUCG | -2.42 ± 0.15 | -0.933 ± 0.26
CUAGAGCAAUAUUACGGAUA | -2.43 ± 0.51 | –
GGUGAGCAAUAUUACGCACA | -1.07 ± 0.15 | -0.679 ± 0.17
UUGCAGCAAUAUUACGAAUU | -2.18 ± 0.18 | -0.985 ± 0.19
CGGCAGCAAUAUUACGGGGG | -3 ± 0.13 | -1.86 ± 0.16
CAUCAGCAAUAUUACGCGCU | -4.89 ± 0.51 | –

Sequence | self-splicing fitness (ln) (30 °C) | self-splicing fitness (ln) (37 °C)
UGAUAGCAAUAUUACGGACC | – | -1.67 ± 0.66
GUCUAGCAAUAUUACGGGGC | -3.31 ± 0.74 | -2.34 ± 0.36
UUGUAGCAAUAUUACGGUAU | – | -2.42 ± 0.54
ACGGAGCAAUAUUACGUGCC | – | -3.09 ± 1
UCACAGCAAUAUUACGACCC | -1.91 ± 0.62 | -1.08 ± 0.59
CGUGAGCAAUAUUACGUUUA | – | -2.95 ± 0.53
CAUUAGCAAUAUUACGACUA | – | -1.33 ± 0.56
GCGAAGCAAUAUUACGACUU | -1.4 ± 0.1 | -0.741 ± 0.12
AACCAGCAAUAUUACGACUA | 0.0905 ± 0.084 | -0.0751 ± 0.079
AUAUAGCAAUAUUACGUCCG | -3.17 ± 0.77 | –
ACUAAGCAAUAUUACGGGGA | -1.84 ± 0.12 | -1.55 ± 0.13
CCGGAGCAAUAUUACGUUUA | -3.23 ± 0.6 | –
GCGGAGCAAUAUUACGCUUC | – | -1.34 ± 0.63
GCUGAGCAAUAUUACGCACC | -1.97 ± 1.2 | –
UGUUAGCAAUAUUACGCCCC | -1.37 ± 0.73 | –
GUUAAGCAAUAUUACGCUUC | -1.78 ± 0.84 | –
CGGUAGCAAUAUUACGCGUA | -0.576 ± 0.59 | -2.76 ± 0.76
AGUGAGCAAUAUUACGGAAG | – | -3.64 ± 1
UUCCAGCAAUAUUACGUUCU | -4.85 ± 0.51 | –
CCUGAGCAAUAUUACGGGGC | – | -3.77 ± 0.51
UUUUAGCAAUAUUACGCUCA | -0.731 ± 0.29 | 0.849 ± 0.44
UCUCAGCAAUAUUACGCACC | – | -2.34 ± 0.5
GACGAGCAAUAUUACGAAAA | -3.31 ± 0.56 | –

Full records, quoted from the list. Order of values: self-splicing fitness (ln) (30 °C)	self-splicing fitness (ln) (37 °C)
AUAUAGCAAUAUUACGUCCG in the list: -3.17 ± 0.77	–
GCUGAGCAAUAUUACGCACC in the list: -1.97 ± 1.2	–
UUUUAGCAAUAUUACGCUCA in the list: -0.731 ± 0.29	0.849 ± 0.44
UGUUAGCAAUAUUACGCCCC in the list: -1.37 ± 0.73	–

Already shown: an excerpt of the list.
Sequence | self-splicing fitness (ln) (30 °C) | self-splicing fitness (ln) (37 °C)
ACGGAGCAAUAUUACGUGCC | – | -3.09 ± 1
UCACAGCAAUAUUACGACCC | -1.91 ± 0.62 | -1.08 ± 0.59

Reference: the supplement of paper PMC7877785
